Among all 310,000 compounds or so, about 17,000 (5.5%) were called active. The inconclusive results got no clear call from the source; some entries with a clear call stand among them for comparison. Calls come from the whole dose curve; as a rule, active = well fitted inhibition curve with a large enough effect; inconclusive = small, poorly fitted or top-dose-only effect, or effect the other way; inactive = no such curve, though single readings can be large or run the other way. Where the call is inconclusive, the potency comes from a doubtful curve fit.
The molecules below were run against Nuclear receptor ROR-gamma (Mus musculus) (UniProt P51450) (assay: qHTS for inhibitors of ROR gamma transcriptional activity). Details: Drosophila S2 Gal4-RORgamma UAS-luciferase reporter, 20 h; activity change, negative = inhibition: at 53.6 µM (top of the series).
Method in brief: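 Using a luciferase readout, inhibitors were identified by reduced reporter activity in Drosophila cells coexpressing a copper-inducible Gal4–ROR gamma fusion and UAS-driven Photinus luciferase, incubated 20 hr after 700 uM copper sulfate.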
% is set by controls: 0 for no effect and ±100 for the full control effect; potency is the fitted concentration of half-maximal effect.
Note: nearly all actives have a fitted effect of over 60% in size.

Amino acid sequences for entries named in this document (tags omitted). A change or cut given only in a name is not applied to a line headed by its entry.
UniProt P51450: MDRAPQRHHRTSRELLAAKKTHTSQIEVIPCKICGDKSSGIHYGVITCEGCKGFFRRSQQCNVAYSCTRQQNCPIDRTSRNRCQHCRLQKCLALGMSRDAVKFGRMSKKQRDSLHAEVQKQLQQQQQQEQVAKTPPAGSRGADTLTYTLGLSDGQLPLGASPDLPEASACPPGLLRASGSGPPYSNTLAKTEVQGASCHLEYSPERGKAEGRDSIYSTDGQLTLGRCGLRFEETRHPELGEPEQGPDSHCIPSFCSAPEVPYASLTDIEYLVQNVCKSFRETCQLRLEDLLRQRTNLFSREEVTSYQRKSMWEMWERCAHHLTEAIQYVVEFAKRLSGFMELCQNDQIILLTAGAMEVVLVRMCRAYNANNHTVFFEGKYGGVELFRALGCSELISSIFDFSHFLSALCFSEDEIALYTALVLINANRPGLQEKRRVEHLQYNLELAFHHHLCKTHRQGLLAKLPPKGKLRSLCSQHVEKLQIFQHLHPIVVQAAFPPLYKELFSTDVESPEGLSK

Potency, inconclusive:
Cc1ccc(N(C(=O)c2sc(C)nc2C)C(C(=O)NCc2ccco2)c2ccccc2)cc1 (centres undefined) 0.355 µM [activator, full curve, poor fit]
Cc1c(C(=O)Nc2ccc(OC(F)(F)F)cc2)sc2nc3n(c(=O)c12)CCC3 17.8 µM [activator, single point]
COc1ccc(/C=N/Nc2nc(-c3ccc(Cl)cc3)cc(C(F)(F)F)n2)c(OC)c1 11.2 µM [inhibitor, partial curve]
O=C(Oc1ccccc1/C=C\C(=O)c1cc2ccccc2o1)c1ccccc1 22.4 µM [inhibitor, single point]
Cc1ccc(-c2nc(SCC(=O)Nc3cc(S(=O)(=O)N4CCCCC4)ccc3Cl)n[nH]2)cc1 14.1 µM [activator, single point]
C=C(C)CN(Cc1ccccc1)C(=S)Nc1ccccc1 17.8 µM [inhibitor, single point]
O=C(Cc1ccc(F)cc1)Nc1nc(-c2ccc(F)c(F)c2)cs1 25.1 µM [activator, single point]
CN1c2ccsc2/C(=N/Nc2ccccc2)CS1(=O)=O 35.5 µM [inhibitor, single point]
COc1ccc(CNC(=O)c2noc3c2CCCC3)cc1 10 µM [activator, partial curve]
COc1ccccc1CNC(=O)CCn1c(=O)oc2ccccc21 0.501 µM [inhibitor, full curve]
Cc1ccc(CSc2nc3nc(C)cc(C)n3n2)cc1 10 µM [activator, single point]
COc1cc(C)c(S(=O)(=O)n2ccc(C)n2)cc1C 0.0355 µM [inhibitor, full curve, poor fit]
Cc1ccoc1C(=O)Nc1cccc(Oc2ccccc2)c1 31.6 µM [inhibitor, single point]
COc1ccc(CC(=O)NCC2CCCN(Cc3ccc(SC)cc3)C2)cc1 (centres undefined) 0.1 µM [activator, partial curve]
O=C(CSc1n[nH]c(-c2ccc(S(=O)(=O)NC3CCCCC3)cc2)n1)N1CCCC1 15.8 µM [activator, partial curve]
O=C1NC(=O)c2cc([N+](=O)[O-])cc3cccc1c23 2.82 µM [inhibitor, partial curve]
O=C(/C=C/c1ccc2c(c1)OCO2)NCc1ccc(F)cc1 22.4 µM [activator, single point]
Cn1nnnc1SCc1nc2scc(-c3ccccc3)c2c(=O)[nH]1 20 µM [activator, partial curve, poor fit]
CC(=O)c1cc(F)c(N2CCN(C(=O)COc3ccccc3F)CC2)cc1C 12.6 µM [activator, single point]
Cc1nc2nc(SCC(=O)Nc3cccc(F)c3)[nH]c2cc1Br 22.4 µM [inhibitor, single point]
COc1cccc(OCc2nc(-c3ccc(Br)o3)no2)c1 11.2 µM [activator, partial curve]
COc1ccc(C(=O)Cc2nnc(C)s2)c(OC)c1 35.5 µM [inhibitor, single point]
CCc1ccccc1NC(=S)N(CCN(C)C)C(C)c1ccccn1 (centres undefined) 14.1 µM [inhibitor, partial curve]
C/C(=N\NC(=O)c1cc(-c2ccccn2)nc2ccccc12)c1cccc([N+](=O)[O-])c1 6.31 µM [inhibitor, single point]
COc1ccc(C(=O)N/N=C/c2ccccn2)cc1OC 35.5 µM [inhibitor, single point]
CC(C)OC(=O)NC(C)(C)COC(=O)Nc1cccc(Cl)c1 20 µM [activator, single point]

Quoted from above, 2 compounds:
Potency, inconclusive:
COc1ccc(C(=O)Cc2nnc(C)s2)c(OC)c1 35.5 µM [inhibitor, single point]
CCc1ccccc1NC(=S)N(CCN(C)C)C(C)c1ccccn1 (centres undefined) 14.1 µM [inhibitor, partial curve]

Following part.

Potency, active:
Cc1cc(=O)oc2cc(OCC(=O)N/N=C/c3ccccc3O)ccc12 2.24 µM
O=C(NNC(=O)c1ccccc1C(=O)O)c1ccc(O)cc1 0.316 µM
CC(C)c1nc2ccc(Br)cn2c1NC1CCCC1 7.08 µM
Cc1ccc(NC(=S)NNC(=O)c2cn(C)nc2C)cc1 11.2 µM
Cc1cccc(NCc2ccc(O)c3ncccc23)c1 6.31 µM
Cc1sc2ncnc(SCC(=O)c3ccc(O)cc3O)c2c1C 12.6 µM
Cc1cccc(C)c1NC(=S)NC1CCCCC1 6.31 µM
COc1ccc(-c2c(C)nc3c(-c4ccccn4)cnn3c2N)cc1 5.01 µM
CCNC(=S)NNC(=O)c1cc(-c2ccccc2C)nc2ccccc12 0.562 µM
COc1ccc(Cc2n[nH]c(=S)n2-c2ccc3c(c2)OCCO3)cc1 8.91 µM
CNC(=S)NC12CC3CC(CC(C3)C1)C2 2.51 µM
CCc1ccc(-c2nc(CSCC(=O)NCc3ccco3)c(C)o2)cc1 0.398 µM
COc1ccc(C)cc1NC(=O)Nc1ccc(Br)cn1 10 µM

Activity change, negative = inhibition, inactive:
Cc1ccccc1-c1nnnn1C1CCS(=O)(=O)C1 (centres undefined) 1.99%
CO/N=C\Cc1oc(=O)c(NC(=O)c2ccccc2)cc1C(=O)OC 9.93%
COc1ccc(NC(=O)C/C(C)=N/NC(=O)c2ccccn2)c(OC)c1 2.03%
Cc1ccc(C(=O)Nc2sc(C)c(-c3ccccc3)c2C(N)=O)cc1[N+](=O)[O-] -25.8%
COc1ccc(-c2cc(C(=O)N3CCOCC3)c3cc(C)ccc3n2)cc1 20.4%
Brc1ccc2c(c1)OCCOCCOCCOCCOCCO2 -7.1%
CCOC(=O)/C(C#N)=C1/C=CN(Cc2ccccc2)C=N1 16.8%
Cc1ccc(CN(c2ccc(C(=O)N3CCc4ccccc4C3)cc2)S(C)(=O)=O)cc1 18.3%
CCn1c2ccccc2c(=O)c2ccccc21 -24.9%
CCSc1nnc(NC(=O)CSc2nc3c(c(=O)n2C)SC(C)C3)s1 (centres undefined) -18.8% [at 0.365 µM]
